Measured values reported in the supplement of paper PMC3334620.
In all, about 33,000 sequences were measured (“E-score (-0.5 to 0.5)”: median about -0.0059, highest 2% from about 0.26 on). This is one part of the list.

Target: T1, Cin5 (UniProt P40917)
T1 sequence: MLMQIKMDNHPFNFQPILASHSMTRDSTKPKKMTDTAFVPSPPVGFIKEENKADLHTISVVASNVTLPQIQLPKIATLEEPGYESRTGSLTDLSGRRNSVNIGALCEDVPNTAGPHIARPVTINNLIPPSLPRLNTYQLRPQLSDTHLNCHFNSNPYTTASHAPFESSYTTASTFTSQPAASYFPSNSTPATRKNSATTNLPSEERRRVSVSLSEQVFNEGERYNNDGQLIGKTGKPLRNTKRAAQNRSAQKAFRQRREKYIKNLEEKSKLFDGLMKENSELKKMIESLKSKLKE
Experiment: PBM E-score (8-mer binding enrichment) (E-score (-0.5 to 0.5)); higher = stronger / more preferred TF binding
Settings: protein concentration: 100 nM; construct: GST-full length
How it was run: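 PURExpress in vitro transcription/translation supplied GST-tagged yeast transcription factors, either full-length or DNA-binding domain. Applied at about 100-200 nM to universal all-10-mer Agilent arrays double-stranded by primer extension, the bound protein was detected with fluorescent anti-GST. E-scores, modified Wilcoxon-Mann-Whitney statistics, were given by the Universal PBM Analysis Suite to ungapped eight-base words pooled with their reverse complements after masliner normalisation.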

First: AGTTCCTA
Second: ACGTTCAT
The “PBM E-score” value of the first is higher: 0.0694 for the first, -0.0937 for the second.

Compared with AAGAATCT, GGGCCAGA is lower in “PBM E-score” value: -0.128 for the first, -0.265 for the second.

First: GACACCCA
Second: GATCTCCA
The “PBM E-score” value of the first is lower: -0.106 for the first, -0.0586 for the second.

First: ACTCTTAG
Second: GATATCGA
The “PBM E-score” value of the first is lower: -0.0953 for the first, 0.0864 for the second.

First: ATCCGCCA
Second: GAACCAAC
The “PBM E-score” value of the first is lower: -0.0147 for the first, 0.0653 for the second.

First: GATACGAC
Second: GGCTTCCC
The “PBM E-score” value of the first is higher: 0.0789 for the first, -0.126 for the second.

First: AGGTCGAT
Second: GTGCCTTA
The “PBM E-score” value of the first is higher: 0.11 for the first, -0.0415 for the second.

Compared with GTTTAACA, AGTACCTC is lower in “PBM E-score” value: -0.0762 for the first, -0.104 for the second.

Going from GAACAGGA to ATGTCTAA, the “PBM E-score” value rises from -0.126 to 0.109.

Compared with AGTGATAC, CCTCCACA is lower in “PBM E-score” value: 0.0142 for the first, -0.0493 for the second.

Compared with CAAGTTGC, CGCCGTTA is lower in “PBM E-score” value: 0.067 for the first, -0.0979 for the second.

First: GGTTCCCA
Second: GGAATGAC
The “PBM E-score” value of the first is lower: -0.0888 for the first, -0.078 for the second.

First: GTCACGAC
Second: ATAACCAC
The “PBM E-score” value of the first is lower: -0.0235 for the first, 0.223 for the second.

First: CCCAACAG
Second: AAATCAGT
The “PBM E-score” value of the first is lower: -0.17 for the first, 0.0941 for the second.

Going from ATTGGAGC to CAAACGCC, the “PBM E-score” value falls from 0.116 to 0.0669.

First: CAGACGAC
Second: ACGTTAGA
The “PBM E-score” value of the first is lower: -0.168 for the first, -0.0459 for the second.

First: AAGTCACA
Second: GAACTCCC
The “PBM E-score” value of the first is lower: -0.0425 for the first, -0.00495 for the second.

Compared with GGAGCTTA, GGGCCTCA is lower in “PBM E-score” value: -0.0361 for the first, -0.137 for the second.

First: ACTTTATC
Second: AGCTGCAA
The “PBM E-score” value of the first is higher: 0.0555 for the first, -0.123 for the second.

Compared with ACCGACTA, CGATTTGA is higher in “PBM E-score” value: -0.265 for the first, 0.0886 for the second.

Going from GGGTGGAC to GACCCCGA, the “PBM E-score” value rises from -0.0521 to -0.0484.

First: CAGCGCCC
Second: CTAATTGC
The “PBM E-score” value of the first is lower: -0.229 for the first, 0.176 for the second.

First: GTCGGCAA
Second: CCTGTTGC
The “PBM E-score” value of the first is lower: -0.191 for the first, 0.095 for the second.

Compared with GGGTCTCA, AATAGGCT is higher in “PBM E-score” value: -0.198 for the first, 0.0941 for the second.

Going from AAGACCCG to GGGATAAC, the “PBM E-score” value rises from -0.133 to 0.0275.

First: CCGAGCGA
Second: CAAATGCC
The “PBM E-score” value of the first is higher: 0.0201 for the first, -0.0795 for the second.

Compared with ACAACTAG, GGTTCCAA is higher in “PBM E-score” value: -0.0625 for the first, 0.00179 for the second.

Compared with AACAGCGC, AAGCCTCA is lower in “PBM E-score” value: -0.0369 for the first, -0.101 for the second.

First: TCTCCTAA
Second: ACTCCTCC
The “PBM E-score” value of the first is higher: -0.0306 for the first, -0.164 for the second.

First: TCGAAAAA
Second: AGGCATGA
The “PBM E-score” value of the first is higher: 0.121 for the first, -0.0554 for the second.

First: AAACCGTC
Second: TACTTCGA
The “PBM E-score” value of the first is lower: -0.205 for the first, 0.183 for the second.

First: ACGTAAAC
Second: AATGCTAT
The “PBM E-score” value of the first is lower: 0.0855 for the first, 0.117 for the second.

Going from GGGCTAGA to GTTCTAAA, the “PBM E-score” value rises from -0.149 to -0.0688.

Compared with CGGAGTTA, CCCCGAGA is lower in “PBM E-score” value: -0.0355 for the first, -0.0837 for the second.

Compared with GCCTACAA, AACACTTG is lower in “PBM E-score” value: 0.00108 for the first, -0.053 for the second.

Compared with TCGAGGAA, ACGTTTCC is higher in “PBM E-score” value: -0.127 for the first, -0.0884 for the second.

Compared with CGTCCGCA, GATGATTA is higher in “PBM E-score” value: -0.0867 for the first, 0.23 for the second.

First: CGCTCCAA
Second: CGCTCGTC
The “PBM E-score” value of the first is higher: -0.133 for the first, -0.208 for the second.

First: ACTGCACG
Second: ACGATGAC
The “PBM E-score” value of the first is higher: -0.0546 for the first, -0.107 for the second.

Going from CGCGTCCG to GCCCGACA, the “PBM E-score” value falls from 0.069 to 0.0209.

Compared with AACCGATG, CCAAGATC is lower in “PBM E-score” value: 0.112 for the first, -0.0132 for the second.

First: ATCTTCCC
Second: AAATGTCT
The “PBM E-score” value of the first is higher: 0.0532 for the first, -0.0156 for the second.

Going from AATGAGCC to GTCAATCA, the “PBM E-score” value rises from -0.112 to 0.0076.

First: AAAGCTGC
Second: ACCGGGCA
The “PBM E-score” value of the first is higher: 0.0861 for the first, -0.169 for the second.

Going from ATGCCTCG to CATAAGAG, the “PBM E-score” value rises from -0.0381 to 0.113.

First: AGAAGCTC
Second: AACGGTGG
The “PBM E-score” value of the first is higher: -0.146 for the first, -0.202 for the second.

Compared with CATGCAGC, AGAGAGGG is lower in “PBM E-score” value: -0.0897 for the first, -0.271 for the second.

Going from GGAGTGCC to AAATATAC, the “PBM E-score” value rises from -0.0729 to 0.178.

Compared with CGTATGGA, CGACCAAA is higher in “PBM E-score” value: 0.0632 for the first, 0.133 for the second.

Compared with GTTCTCCA, AACTAGTT is higher in “PBM E-score” value: -0.0622 for the first, 0.0267 for the second.

First: CCATATAG
Second: TAGGTGGA
The “PBM E-score” value of the first is higher: 0.0359 for the first, -0.0718 for the second.

First: GGATCATA
Second: ATATACCA
The “PBM E-score” value of the first is lower: 0.0391 for the first, 0.156 for the second.

Going from ATTAATGG to GCTGAGTA, the “PBM E-score” value falls from 0.156 to 0.105.

First: GGCTAACA
Second: ACTCGTAC
The “PBM E-score” value of the first is higher: -0.0786 for the first, -0.1 for the second.

For ATACCGAC, the “PBM E-score” value was -0.105.
